Assay results published in publication PMC9174161.
Results are given in words; binding and its absence hold for the method and conditions named. In cells and extracts the contact can be indirect. Here binding means that the protein was enriched with, or labelled near, the bait; the list need not be complete.

Chains of the proteins cited; added tags and fusions are not shown.
UniProt Q06710: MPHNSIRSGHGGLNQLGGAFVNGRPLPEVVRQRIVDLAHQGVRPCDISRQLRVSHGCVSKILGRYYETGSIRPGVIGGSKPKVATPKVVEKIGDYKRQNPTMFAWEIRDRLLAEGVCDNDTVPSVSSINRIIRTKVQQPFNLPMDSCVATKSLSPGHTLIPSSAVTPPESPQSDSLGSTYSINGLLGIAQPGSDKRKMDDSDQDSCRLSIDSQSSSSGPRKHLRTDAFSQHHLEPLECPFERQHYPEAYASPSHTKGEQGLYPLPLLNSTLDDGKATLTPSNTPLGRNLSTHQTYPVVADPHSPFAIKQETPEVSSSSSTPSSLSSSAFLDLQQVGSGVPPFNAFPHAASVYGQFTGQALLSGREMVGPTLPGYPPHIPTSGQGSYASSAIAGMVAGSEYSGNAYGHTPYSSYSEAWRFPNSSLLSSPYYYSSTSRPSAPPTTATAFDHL
UniProt O00571: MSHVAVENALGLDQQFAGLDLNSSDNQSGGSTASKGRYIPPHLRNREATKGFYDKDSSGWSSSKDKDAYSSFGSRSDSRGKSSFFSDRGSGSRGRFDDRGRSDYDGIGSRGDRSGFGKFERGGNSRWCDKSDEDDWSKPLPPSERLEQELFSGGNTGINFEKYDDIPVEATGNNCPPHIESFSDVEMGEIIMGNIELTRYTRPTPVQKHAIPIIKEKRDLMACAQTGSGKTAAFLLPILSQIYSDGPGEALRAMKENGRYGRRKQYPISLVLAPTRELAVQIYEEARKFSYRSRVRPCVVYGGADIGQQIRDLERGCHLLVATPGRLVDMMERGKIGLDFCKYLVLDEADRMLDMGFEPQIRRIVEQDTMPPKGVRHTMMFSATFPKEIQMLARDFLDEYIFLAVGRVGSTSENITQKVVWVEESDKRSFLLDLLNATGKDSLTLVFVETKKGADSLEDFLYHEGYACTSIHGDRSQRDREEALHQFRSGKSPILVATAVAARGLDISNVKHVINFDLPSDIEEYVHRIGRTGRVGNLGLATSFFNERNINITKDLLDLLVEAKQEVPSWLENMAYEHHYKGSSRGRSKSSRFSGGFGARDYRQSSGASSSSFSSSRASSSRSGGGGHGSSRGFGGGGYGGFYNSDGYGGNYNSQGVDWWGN
UniProt Q92841: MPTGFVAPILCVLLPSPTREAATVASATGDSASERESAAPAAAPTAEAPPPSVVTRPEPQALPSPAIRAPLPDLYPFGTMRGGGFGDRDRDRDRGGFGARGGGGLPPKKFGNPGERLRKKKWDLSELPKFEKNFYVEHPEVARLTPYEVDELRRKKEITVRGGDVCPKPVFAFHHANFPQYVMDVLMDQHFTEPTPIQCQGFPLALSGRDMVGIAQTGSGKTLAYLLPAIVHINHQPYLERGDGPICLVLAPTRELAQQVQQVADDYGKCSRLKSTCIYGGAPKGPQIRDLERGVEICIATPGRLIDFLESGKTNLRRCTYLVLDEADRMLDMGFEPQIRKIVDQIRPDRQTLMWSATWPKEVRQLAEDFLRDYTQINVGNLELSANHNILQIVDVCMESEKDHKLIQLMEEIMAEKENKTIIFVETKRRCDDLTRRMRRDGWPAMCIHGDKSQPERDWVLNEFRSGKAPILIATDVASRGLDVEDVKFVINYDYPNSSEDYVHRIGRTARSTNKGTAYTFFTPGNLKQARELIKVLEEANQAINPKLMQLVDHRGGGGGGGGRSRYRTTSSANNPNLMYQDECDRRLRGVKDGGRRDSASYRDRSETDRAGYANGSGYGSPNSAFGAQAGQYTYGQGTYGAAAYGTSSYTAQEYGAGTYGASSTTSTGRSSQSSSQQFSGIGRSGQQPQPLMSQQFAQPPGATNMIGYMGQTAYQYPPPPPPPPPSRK
UniProt P17844: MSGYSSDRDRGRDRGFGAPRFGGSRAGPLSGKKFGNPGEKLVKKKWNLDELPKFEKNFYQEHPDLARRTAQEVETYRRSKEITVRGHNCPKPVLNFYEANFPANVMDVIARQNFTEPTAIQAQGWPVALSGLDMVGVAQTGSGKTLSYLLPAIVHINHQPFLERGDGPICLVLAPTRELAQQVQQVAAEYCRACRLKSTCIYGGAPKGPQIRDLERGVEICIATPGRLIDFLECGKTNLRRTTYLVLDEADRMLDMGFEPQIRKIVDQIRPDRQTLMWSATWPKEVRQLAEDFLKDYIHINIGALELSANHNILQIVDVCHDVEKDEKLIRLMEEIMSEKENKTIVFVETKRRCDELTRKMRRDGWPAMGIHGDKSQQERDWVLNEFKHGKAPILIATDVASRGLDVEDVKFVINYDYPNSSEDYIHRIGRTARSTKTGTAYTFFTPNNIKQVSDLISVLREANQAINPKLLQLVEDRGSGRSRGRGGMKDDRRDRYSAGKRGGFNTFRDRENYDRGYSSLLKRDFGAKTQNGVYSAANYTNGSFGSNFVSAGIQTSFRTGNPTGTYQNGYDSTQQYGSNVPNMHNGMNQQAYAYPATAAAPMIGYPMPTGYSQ

B1: FBL (protein, UniProt P22087 1-321)
chain: MKPGFSPRGGGFGGRGGFGDRGGRGGRGGFGGGRGRGGGFRGRGRGGGGGGGGGGGGGRGGGGFHSGGNRGRGRGGKRGNQSGKNVMVEPHRHEGVFICRGKEDALVTKNLVPGESVYGEKRVSISEGDDKIEYRAWNPFRSKLAAAILGGVDQIHIKPGAKVLYLGAASGTTVSHVSDIVGPDGLVYAVEFSHRSGRDLINLAKKRTNIIPVIEDARHPHKYRMLIAMVDVIFADVAQPDQTRIVALNAHTFLRNGGHFVISIKANCIDSTASAEAVFASEVKKMQQENMKPQEQLTLEPYERDHAVVVGVYRPPPKVKN

molecular target: HA-tagged PAX8 (Paired box 8) (UniProt Q06710); experiment: affinity purification with mass spectrometry; HA-PAX8 overexpressed in HEK293T cells, immunoprecipitated with anti-HA antibody; IgG control; in-gel tryptic digestion, LC-MS/MS (the legend of Fig. 5A says Ishikawa cells and anti-PAX8 antibody)

Row | Molecule | binding
1 | DDX3X (from UniProt O00571 1-662) | binds
2 | DDX17 (from UniProt Q92841 1-729) | binds
3 | DDX5 (from UniProt P17844 1-614) | binds
4 | B1 | binds
